{"source": "PubChem BioAssay AID1259283 (Sanger Institute, 2017)", "assay": "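Kinome-wide siRNA search for kinases acting with BYL719, cetuximab or trametinib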 (primary screen)", "cell system": "HT115 colorectal cancer cells", "reagents": "siRNA pool against human genes", "conditions": "anchor drug given one day after siRNA: BYL719 at 1 µM, cetuximab at 5 µg/ml, trametinib at 10 nM, or DMSO vehicle alone", "detection": "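Viability normalised to non-targeting pool #2 wells and averaged over replicates, robust z-score against control wells, and a synergy score for each of three drugs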", "direction": "robust z-score, knock-down alone: higher = more viable cells after knock-down", "hit rule": "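a gene counts as essential when its robust z-score with knock-down alone is below -3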", "calls": "active = essential (z below -3, no drug); inactive = no change without drug", "note": "This is an unselected part of 794 reagents. In the full data, 14 (1.8%) are marked active. 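Calls reflect only viability loss without drug; drug synergy does not enter the call.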 Further read-outs or replicates are left out here. Not given: the amount of reagent, the time to read-out."}
{"Target gene": "SBK1 (SH3 domain binding kinase 1)", "robust z-score, knock-down alone": 0.789, "activity call": "inactive"}
{"Target gene": "PRKCZ (protein kinase C zeta)", "robust z-score, knock-down alone": -0.335, "activity call": "inactive"}
{"Target gene": "CDADC1 (cytidine and dCMP deaminase domain containing 1)", "robust z-score, knock-down alone": 0.597, "activity call": "inactive"}
{"Target gene": "ALK (ALK receptor tyrosine kinase)", "robust z-score, knock-down alone": -2.49, "activity call": "inactive"}
{"Target gene": "TLK2 (tousled like kinase 2)", "robust z-score, knock-down alone": 0.789, "activity call": "inactive"}
{"Target gene": "MAP3K15 (mitogen-activated protein kinase kinase kinase 15)", "robust z-score, knock-down alone": 0.789, "activity call": "inactive"}
{"Target gene": "PANK4 (pantothenate kinase 4 (inactive))", "robust z-score, knock-down alone": -0.774, "activity call": "inactive"}
{"Target gene": "TSSK2 (testis specific serine kinase 2)", "robust z-score, knock-down alone": -0.392, "activity call": "inactive"}
{"Target gene": "TRIB3 (tribbles pseudokinase 3)", "robust z-score, knock-down alone": 0.375, "activity call": "inactive"}
{"Target gene": "DGKQ (diacylglycerol kinase theta)", "robust z-score, knock-down alone": -1.88, "activity call": "inactive"}
{"Target gene": "MAPK13 (mitogen-activated protein kinase 13)", "robust z-score, knock-down alone": -0.908, "activity call": "inactive"}
{"Target gene": "CSNK2A1 (casein kinase 2 alpha 1)", "robust z-score, knock-down alone": 0.486, "activity call": "inactive"}
{"Target gene": "NRBP1 (nuclear receptor binding protein 1)", "robust z-score, knock-down alone": 0.789, "activity call": "inactive"}
{"Target gene": "SIK1 (salt inducible kinase 1)", "robust z-score, knock-down alone": 0.583, "activity call": "inactive"}
{"Target gene": "AKAP9 (A-kinase anchoring protein 9)", "robust z-score, knock-down alone": 0.789, "activity call": "inactive"}
{"Target gene": "THNSL1 (threonine synthase like 1)", "robust z-score, knock-down alone": 0.645, "activity call": "inactive"}
{"Target gene": "MAP3K21 (mitogen-activated protein kinase kinase kinase 21)", "robust z-score, knock-down alone": -0.451, "activity call": "inactive"}
{"Target gene": "AK1 (adenylate kinase 1)", "robust z-score, knock-down alone": 0.789, "activity call": "inactive"}
{"Target gene": "PRKAA1 (protein kinase AMP-activated catalytic subunit alpha 1)", "robust z-score, knock-down alone": 0.765, "activity call": "inactive"}

Individual results from above:
For “activity call”, AKAP9 (A-kinase anchoring protein 9) has inactive
For “activity call”, DGKQ (diacylglycerol kinase theta) has inactive
SBK1 (SH3 domain binding kinase 1), activity call = inactive
